Measurements published in the supplement of paper PMC5949888.
Most values lie at the floor of the assay. Slopes are relative: functional sequences can read slightly below zero.

What follows are substances tested on Saccharomyces cerevisiae PS128 hsf1 delta, HSF1(1-493) fusion (assay: growth estimate (transactivation domain function in HSF1 fusion, heat-shock survival) (a.u. (slope of normalised read count over time)); higher = stronger growth at 37°C, i.e. more transactivation activity). Conditions: library: random library.

| Substance | growth estimate |
| --- | --- |
| RGVRVFKAGH | < -0.25 |
| RGVYFK | -0.247 |
| RGYRDY | < -0.25 |
| RGYSGASSRWGYGPRVALVI | < -0.25 |
| RHAGLPWGRKLATSCEAPS | < -0.25 |
| RHARRSGIISEVSERIGIFA | < -0.25 |
| RHAS | < -0.25 |
| RHASSLA | < -0.25 |
| RHCGASADCSTATA | < -0.25 |
| RHCIAFRAHQFRALR | < -0.25 |
| RHCLRQHCEFSLGRLLSNYR | < -0.25 |
| RHEYAIDETRLDRCYNWIAG | < -0.25 |
| RHG | < -0.25 |
| RHGTLRDLR | < -0.25 |
| RHHDIAFALGCKKLSQLGQH | < -0.25 |
| RHINRRTNSSP | < -0.25 |
| RHIRPNFAW | < -0.25 |
| RHKPISR | < -0.25 |
| RHL | < -0.25 |
| RHLLRHCVQLGSAP | < -0.25 |
| RHLLYPARHQGIVLRTRTAH | < -0.25 |
| RHLRGFSKGGCPTIVPLRMC | < -0.25 |
| RHLVCFGGIKNANG | < -0.25 |
| RHMRRNMVARRG | < -0.25 |
| RHPFSQSQ | < -0.25 |
| RHQSFVTGAVRILVYAAGWT | < -0.25 |

| Substance | growth estimate |
| --- | --- |
| RHQTKRRTTKACHLQWTWG | < -0.25 |
| RHRES | < -0.25 |
| RHRTNKRGQAVDL | < -0.25 |
| RHS | < -0.25 |
| RHSIEHRAVVPKRDTNLNQD | < -0.25 |
| RHSLAPALYSLDFQ | < -0.25 |
| RHSQGHSIFLDRTHILSFGR | < -0.25 |
| RHSVRPTPSIEREPECPAPG | < -0.25 |
| RHTCQALLPYA | < -0.25 |
| RHVCRFE | < -0.25 |
| RHVKEDLFHSAVLRM | < -0.25 |
| RHVSTA | < -0.25 |
| RHWTSSGTKCMGLLEH | -0.25 |
| RHYPGSFQ | < -0.25 |
| RIAPQRGNNLPGTARPTRV | -0.245 |
| RIASGTKFGPLLVRLETCHD | < -0.25 |
| RICSLGLNGRLAASERDQTS | < -0.25 |
| RIDPVNGECTESHLYRVP | < -0.25 |
| RIE | < -0.25 |
| RIEALGILWSGGVYPRENVG | < -0.25 |
| RIEGAHS | < -0.25 |
| RIEKSRSRATLYLRQGLPGT | < -0.25 |
| RIGHLVTPLFASWNFTRDSS | < -0.25 |
| RIGPAPAQFVVRLR | < -0.25 |
| RIGVYAFTLCGRPCSAKYDG | < -0.25 |
| RIHAAF | < -0.25 |

| Substance | growth estimate |
| --- | --- |
| RIHCSLGDVFAASALRV | < -0.25 |
| RIIRETLNLRQAPVQILSRL | < -0.25 |
| RILAPKRWPS | < -0.25 |
| RILCGTTKTCAHCPGHGAD | < -0.25 |
| RILGSTPSVPAIHRS | < -0.25 |
| RILLGVEGAPFVQAGFVRVY | < -0.25 |
| RILPGRKFDLGNAALGTGVH | < -0.25 |
| RILRACCGLSRFPSRRHIRS | < -0.25 |
| RILVIMAFNWLRLKDVGTSR | < -0.25 |
| RILVP | < -0.25 |
| RIMEDEYRE | < -0.25 |
| RIMI | < -0.25 |
| RIMYFP | < -0.25 |
| RINLGLEFAFTFLELTVLYR | < -0.25 |
| RIPIPQVYSPQANGVF | -0.248 |
| RIQPT | < -0.25 |
| RIRDI | < -0.25 |
| RIRGKR | < -0.25 |
| RIRGLKTPGSG | -0.241 |
| RIRKGSRAFRQCVGFLGSTR | < -0.25 |
| RIRRY | < -0.25 |
| RISAAMRMSDGSGLSLIVDH | < -0.25 |
| RIT | < -0.25 |
| RITCGNLNTPRDESA | < -0.25 |
| RITGRHVRTSMLEWLDLSA | < -0.25 |
| RITQRNRARKYTTGVLNKVS | < -0.25 |

Laid out differently: entries from further up.
Substance	growth estimate
RILVIMAFNWLRLKDVGTSR	< -0.25
RILVP	< -0.25
RIMEDEYRE	< -0.25
RIMI	< -0.25
RIMYFP	< -0.25

Further entries follow:

| Substance | growth estimate |
| --- | --- |
| RITYDRLAVSRKARG | < -0.25 |
| RIV | < -0.25 |
| RIVRY | < -0.25 |
| RIYG | < -0.25 |
| RIYTPLSHLDRGVNALTRSG | < -0.25 |
| RKAVAHMSVRHSGAE | < -0.25 |
| RKCLV | < -0.25 |
| RKDHEQPQGRGIGAAVPSSL | < -0.25 |
| RKEKRGDFAENGTGGMEPIV | < -0.25 |
| RKEYDPLAIQATGLRALGGP | < -0.25 |
| RKEYP | < -0.25 |
| RKFGCIGSREKKGATRSQSS | < -0.25 |
| RKFHVGVSGRNSVP | < -0.25 |
| RKFVDSVVPMVQGGIYG | < -0.25 |
| RKG | < -0.25 |
| RKGCISDVVDL | < -0.25 |
| RKGCLEP | < -0.25 |
| RKGDWAARNMPR | -0.243 |
| RKGLGGGLGLGKRIQSIASG | < -0.25 |
| RKGQSINVWE | < -0.25 |
| RKGSY | < -0.25 |
| RKHQLGSTMAGVPDHYAIRF | < -0.25 |
| RKHRDPSIGWARPSHNPFTS | < -0.25 |
| RKIVSDPEAGSFERPPRTDH | < -0.25 |
| RKKIVLSGGNACRDVEVV | < -0.25 |
| RKL | < -0.25 |

Already shown: entries from further up.

| Substance | growth estimate |
| --- | --- |
| RKFHVGVSGRNSVP | < -0.25 |
| RKFVDSVVPMVQGGIYG | < -0.25 |
| RKG | < -0.25 |
| RKGCISDVVDL | < -0.25 |

Additional records

| Substance | growth estimate |
| --- | --- |
| RKLLWDDHILFER | < -0.25 |
| RKLSCIFFGMGYRLFAGVCP | < -0.25 |
| RKLSSADFPRCENGRTWYTS | < -0.25 |
| RKNFEKSARRGQARALT | < -0.25 |
| RKPEVLRSIRPPISSRRLDN | < -0.25 |
| RKPSR | < -0.25 |
| RKQKRNSLPSPNRLFVVLKI | < -0.25 |
| RKQLGRLRAPSGYKVVKWSD | < -0.25 |
| RKRD | -0.243 |
| RKRFGFKRAPPGAKPAGEWL | < -0.25 |
| RKRSIAGLVLIIAICVVSSG | < -0.25 |
| RKRTRSRHTTTGRSNGTQGR | < -0.25 |
| RKSMHRPTVRYCQGTALADL | < -0.25 |
| RKSTRSALSRVMFIERVTIG | < -0.25 |
| RKTHLRRR | < -0.25 |
| RKTLHY | < -0.25 |
| RKTVETKLSG | < -0.25 |
| RKTWRCRRAWGSVLMSICLP | < -0.25 |
| RKVAEKIPIILADHREHIAD | < -0.25 |
| RKYPNMLMQLEDLRFVKTSG | < -0.25 |
| RKYSARHCSSAMVVLARVAD | < -0.25 |
| RKYSMPRCGAHGNDSACRPK | < -0.25 |
| RKYYV | < -0.25 |
| RLALCGSDLCFLLDSLQKSH | < -0.25 |
| RLALWRITLC | < -0.25 |
| RLASEPYIRNGISAKRTGCA | < -0.25 |

| Substance | growth estimate |
| --- | --- |
| RLASHGAP | < -0.25 |
| RLASLAV | < -0.25 |
| RLAVMSSIDGTYQAT | < -0.25 |
| RLCYSLFRFSGVGSHFTSPP | < -0.25 |
| RLDQQVSGNAQVPSRATYWV | < -0.25 |
| RLDRH | < -0.25 |
| RLDRWRVVIDSQHGFSRGAK | < -0.25 |
| RLDVAPRIGADPIVSVPNSW | < -0.25 |
| RLEAAVPAPYEYLTWTLNWT | < -0.25 |
| RLELTGVHGIKMHGSNVVGW | < -0.25 |
| RLEVR | < -0.25 |
| RLFITDWYFKS | < -0.25 |
| RLFLSAPMSYRIRGVFAGAV | < -0.25 |
| RLFNNGWAR | < -0.25 |
| RLGASSQRGSEGWSQWPRGT | < -0.25 |
| RLGDFWGPASVCHVAQTTPN | < -0.25 |
| RLGIQPS | < -0.25 |
| RLGRGALLFLISGHENKLRQ | < -0.25 |
| RLHNVGIAVHIRDTNRASVL | < -0.25 |
| RLHWFYGALLMSPALLPGPR | < -0.25 |
| RLIGTGPLVWTGKVNTRVLP | < -0.25 |
| RLILP | < -0.25 |
| RLIQ | < -0.25 |
| RLIQWRLSGAGHWIAKNPAR | < -0.25 |
| RLISPLV | < -0.25 |
| RLLAGTQQLLTCDLSS | < -0.25 |

| Substance | growth estimate |
| --- | --- |
| RLLKGSVITPSAQECH | < -0.25 |
| RLLNAFPAKRIWDRR | < -0.25 |
| RLLTLVTRGDTSQSGDRRVA | < -0.25 |
| RLLVSL | < -0.25 |
| RLNFSEQAARAWRVALHNEF | < -0.25 |
| RLNLFS | < -0.25 |
| RLNSCHFPGGARNPTNRNRH | < -0.25 |
| RLPANCGH | < -0.25 |
| RLPGAGICGWA | -0.184 |
| RLR | < -0.25 |
| RLRA | -0.199 |
| RLRDLRHNGRKDKCLRSDRG | < -0.25 |
| RLRDYTIQDG | < -0.25 |
| RLRENCFWYRIVGGTTS | < -0.25 |
| RLRFRPVKCPMDRRKESSPT | < -0.25 |
| RLRGHHAKALTR | < -0.25 |
| RLRGKNFLSEARVSDIPSET | < -0.25 |
| RLRHREVIRRGHRTTKLVVL | < -0.25 |
| RLRIRTVVKLCRMTPFVTVH | < -0.25 |
| RLRKEPSEGNPSLD | < -0.25 |
| RLRKMKVGIYA | < -0.25 |
| RLRLEENAVEGQQQQTVTGL | < -0.25 |
| RLRLIIRIRWDLIRTT | < -0.25 |
| RLRQ | < -0.25 |
| RLRSDAFGMLGPRTSSDPFL | < -0.25 |
| RLRSVGQ | -0.243 |

| Substance | growth estimate |
| --- | --- |
| RLRVCLSVFADSRNVFVRAR | < -0.25 |
| RLSCQITLEKDQMRDRTGLG | < -0.25 |
| RLSDRPPGRDLN | < -0.25 |
| RLSGGQVAVITHGLIGVGRP | < -0.25 |
| RLSGYCETILRSDFIMDLRR | < -0.25 |
| RLSMLRLCVTEVKYRLHRPS | < -0.25 |
| RLSREVSSEDNY | < -0.25 |
| RLSTTESERGCVLTVPGLGV | < -0.25 |
| RLSYAV | < -0.25 |
| RLSYEGGLVPTDPHAYAAPK | < -0.25 |
| RLTCCDQFA | < -0.25 |
| RLTGRRGWVP | < -0.25 |
| RLTI | < -0.25 |
| RLTNELSFTRQSPVGGFHDS | < -0.25 |
| RLTQGHYRVGLNMFSICRA | < -0.25 |
| RLTRRCAVTTMLGRGTAFWT | < -0.25 |
| RLTRSRIRVGCVTVK | -0.231 |
| RLTRVFYRDVTTGSWRRSLT | < -0.25 |
| RLVGGRRRGSIPRRPAHLSL | -0.25 |
